Measurements reported in PubChem BioAssay AID504774 (Drosophila RNAi Screening Center, 2011)
Test: 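Fly genes whose loss alters survival after alkylation damage to DNA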 (primary screen). Cell system: Drosophila Kc167 cells. Reagent: long dsRNA against Drosophila genes, about 0.25 µg dsRNA per well. Timing: about 6 days: 3 days knock-down, then 3 days with or without MMS. Conditions: methyl methanesulphonate 0.004% (w/v) for 3 days after knock-down. Read-out: 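Viability in wells given MMS, read as ATP luminescence, normalised by quantiles plate by plate and averaged across replicates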. Reading the numbers: mean viability with MMS: higher = more surviving cells after MMS.
The deposit covers about 23,000 reagents; shown is a random part of those with a known target gene and a result. 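Values are quantile-normalised luminescence on an arbitrary scale; higher means more cells surviving MMS.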 A plus sign joins genes that one reagent is predicted to hit. Further read-outs or replicates are left out here. No sequences are given here.

CG32299 + CG32298 [DRSC07980]
- mean viability with MMS: 3.52e6

CG32299 + CG32298 [DRSC22354]
- mean viability with MMS: 3.50e6

CG15572 [DRSC18060]
- mean viability with MMS: 3.80e6

S-Lap5 (Sperm-Leucylaminopeptidase 5) [DRSC06732]
- mean viability with MMS: 3.51e6

CG10063 [DRSC09688]
- mean viability with MMS: 3.47e6

elm (ethanol sensitive with low memory) [DRSC12309]
- mean viability with MMS: 3.71e6

CG31128 [DRSC13675]
- mean viability with MMS: 3.54e6

CG31872 [DRSC02568]
- mean viability with MMS: 3.38e6

CG31872 [DRSC02572]
- mean viability with MMS: 3.36e6

CG31845 (retired record) [DRSC22257]
- mean viability with MMS: 3.31e6

CG31845 (retired record) [DRSC23074]
- mean viability with MMS: 2.94e6

RhoL (Rho-like) [DRSC16824]
- mean viability with MMS: 3.65e6

CG14125 [DRSC10129]
- mean viability with MMS: 3.55e6

msn (misshapen) [DRSC07990]
- mean viability with MMS: 3.82e6

msn (misshapen) [DRSC08498]
- mean viability with MMS: 3.55e6

CG8768 [DRSC07259]
- mean viability with MMS: 3.44e6

Vha100-4 (Vacuolar H[+] ATPase 100kD subunit 4) [DRSC16282]
- mean viability with MMS: 3.45e6

iav (inactive) [DRSC18363]
- mean viability with MMS: 3.41e6

mute (muscle wasted) [DRSC06562]
- mean viability with MMS: 3.18e6

mute (muscle wasted) [DRSC22931]
- mean viability with MMS: 2.95e6

CG43773 [DRSC00287]
- mean viability with MMS: 3.35e6

CG43773 [DRSC00288]
- mean viability with MMS: 3.52e6

lncRNA:CR32553 (long non-coding RNA:CR32553) [DRSC19229]
- mean viability with MMS: 3.42e6

CG31082 (retired record) [DRSC13775]
- mean viability with MMS: 3.43e6

CG32708 [DRSC18411]
- mean viability with MMS: 3.48e6

Dhit (Double hit) [DRSC07411]
- mean viability with MMS: 3.69e6

CG8441 [DRSC07180]
- mean viability with MMS: 3.52e6

CG12725 [DRSC19501]
- mean viability with MMS: 3.61e6

Arp53D (Actin-related protein 53D) [DRSC05923]
- mean viability with MMS: 3.52e6

PH4alphaNE3 (prolyl-4-hydroxylase-alpha NE3) [DRSC16541]
- mean viability with MMS: 3.57e6

ArgRS-m (Arginyl-tRNA synthetase, mitochondrial) [DRSC14186]
- mean viability with MMS: 3.53e6

CG15141 [DRSC02441]
- mean viability with MMS: 3.36e6

CG15141 [DRSC02442]
- mean viability with MMS: 3.59e6

CG32599 [DRSC19433]
- mean viability with MMS: 3.45e6

htt (huntingtin) [DRSC16970]
- mean viability with MMS: 3.56e6
